The values below come from paper PMC6488577.

Amino acid sequences for entries named in this document (tags omitted). Residues count along the entry.
UniProt Q9H1A3, residues 19-318: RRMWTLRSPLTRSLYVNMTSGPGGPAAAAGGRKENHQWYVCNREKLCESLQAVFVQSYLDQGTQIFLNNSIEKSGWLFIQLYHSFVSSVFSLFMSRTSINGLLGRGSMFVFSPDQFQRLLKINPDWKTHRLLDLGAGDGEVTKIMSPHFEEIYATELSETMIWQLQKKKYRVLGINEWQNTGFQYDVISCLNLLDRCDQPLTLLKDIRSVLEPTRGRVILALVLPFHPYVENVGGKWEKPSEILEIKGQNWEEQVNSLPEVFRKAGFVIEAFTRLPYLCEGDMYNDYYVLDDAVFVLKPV
UniProt P13674, residues 18-534: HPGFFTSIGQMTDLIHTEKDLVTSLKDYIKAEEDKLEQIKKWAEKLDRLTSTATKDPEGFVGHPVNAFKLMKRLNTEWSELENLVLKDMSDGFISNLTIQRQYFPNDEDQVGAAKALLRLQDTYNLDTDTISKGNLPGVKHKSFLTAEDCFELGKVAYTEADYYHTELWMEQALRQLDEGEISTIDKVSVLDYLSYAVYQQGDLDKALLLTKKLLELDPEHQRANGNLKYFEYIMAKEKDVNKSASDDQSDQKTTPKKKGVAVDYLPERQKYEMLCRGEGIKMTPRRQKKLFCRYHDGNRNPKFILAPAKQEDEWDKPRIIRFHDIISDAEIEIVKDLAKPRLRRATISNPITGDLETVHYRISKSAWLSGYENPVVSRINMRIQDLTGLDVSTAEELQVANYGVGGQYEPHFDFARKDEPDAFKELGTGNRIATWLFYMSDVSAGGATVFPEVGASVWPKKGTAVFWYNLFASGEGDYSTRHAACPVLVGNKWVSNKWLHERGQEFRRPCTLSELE
UniProt P27824, residues 21-592: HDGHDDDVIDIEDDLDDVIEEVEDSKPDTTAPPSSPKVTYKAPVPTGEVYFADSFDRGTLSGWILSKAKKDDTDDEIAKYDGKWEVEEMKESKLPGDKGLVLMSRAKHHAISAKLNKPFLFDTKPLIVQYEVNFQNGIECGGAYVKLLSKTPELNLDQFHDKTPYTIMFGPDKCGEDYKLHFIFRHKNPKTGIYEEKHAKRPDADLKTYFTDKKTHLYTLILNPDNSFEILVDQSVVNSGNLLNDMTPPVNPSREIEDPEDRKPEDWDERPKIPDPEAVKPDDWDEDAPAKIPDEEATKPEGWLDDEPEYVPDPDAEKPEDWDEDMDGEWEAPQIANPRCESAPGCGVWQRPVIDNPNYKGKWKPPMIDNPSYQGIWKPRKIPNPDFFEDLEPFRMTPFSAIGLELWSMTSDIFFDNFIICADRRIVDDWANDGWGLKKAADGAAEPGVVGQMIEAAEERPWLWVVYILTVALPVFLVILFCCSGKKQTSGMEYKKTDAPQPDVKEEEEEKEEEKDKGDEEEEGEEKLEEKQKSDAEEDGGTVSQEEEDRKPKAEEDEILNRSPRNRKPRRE

These are yes or no findings as the source states them, for the method shown. In cells and extracts the contact can be indirect. These calls come from enrichment with a bait or labelling near it, and not all partners need be listed. For part of these data: Where a sequence is shown, tags or fusion partners need not be part of it.

What all share (experiment): affinity purification with mass spectrometry; GFP fusion captured on GFP nanobody sepharose beads (Chromotek) from 3 mg whole cell extract in RIPA buffer (150 mM NaCl, 50 mM Tris-HCl pH 8.0) with 50 ug/ml ethidium bromide, 1.5 h 4 C; washes with 300 mM NaCl; triplicate; label-free quantification against GFP control, log2 FC > 8, FDR < 0.05
In test [1] the target is T1, GFP-METTL8 (human) (UniProt Q9H825).
T1 sequence: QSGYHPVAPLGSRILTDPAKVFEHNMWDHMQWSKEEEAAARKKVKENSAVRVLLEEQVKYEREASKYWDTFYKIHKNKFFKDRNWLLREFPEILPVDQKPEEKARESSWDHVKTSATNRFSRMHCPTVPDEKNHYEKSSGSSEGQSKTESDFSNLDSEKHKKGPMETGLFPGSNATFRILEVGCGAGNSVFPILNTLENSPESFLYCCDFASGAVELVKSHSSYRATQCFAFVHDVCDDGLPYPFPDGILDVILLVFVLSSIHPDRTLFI

For test [2], the target named is GFP-METTL9 (human) (UniProt Q9H1A3).
Test [3] has as its target GFP-METTL7B (human).

Consider “prolyl 4-Hydroxylase Subunit Alpha 1 (P4HA1) (from UniProt P13674 18-534) (enzyme)”, for which, in test [1], the binding entry is recorded as “binds”.
Take “Calnexin precursor (CANX) (from UniProt P27824 21-592)”: in test [2], the binding result was “binds”.

B1: transmembrane protein TMEM126A (protein, UniProt Q9H061 1-195)
chain: MENHKSNNKENITIVDISRKINQLPEAERNLLENGSVYVGLNAALCGLIANSLFRRILNVTKARIAAGLPMAGIPFLTTDLTYRCFVSFPLNTGDLDCETCTITRSGLTGLVIGGLYPVFLAIPVNGGLAARYQSALLPHKGNILSYWIRTSKPVFRKMLFPILLQTMFSAYLGSEQYKLLIKALQLSEPGKEIH
Consider B1, for which the binding result in test [3] is “binds”.
